Reference: patent publication US8058467B2, “Prostaglandin derivatives” (Nicox S.A., priority 2004, dated 2011)
For at least one compound, name, drawing or mass did not settle the structure.

Test system: carbomer-evoked increase in IOP
Test: Intraocular pressure in carbomer-treated rabbits
Assay type: in vivo, rabbit
Settings: 0.005% solution, 1 drop/eye/day, 4 weeks
Protocol: Male NZW rabbits ranging from 3-5 kgs of body weight were used in this study. Briefly, the ability of Latanoprost nitroderivative (compound 4, EXAMPLE 3) at reducing intraocular pressure (IOP) was tested in animals previously treated with intracameral injection of 0.25% carbomer solution installation until after a stable increase of the intraocular pressure was reached. In this particular study, test drugs were administered to one eye with the dosage schedule of 1 drop/eye/day for 5 days a week with a physiologic solution containing 0.005% of control or test compounds. The IOP was monitored 3 h after drug application, two-three times weekly for a total of 4 weeks. This concentration was chosen as it reflects that of latanoprost isopropyl ester currently used in clinic to treat the increase of IOP observed in glaucoma patients. Furthermore, at each visit, about 200 μl of aqueous humor was collected using a 30 gauge needle from both eyes under lidocaine anesthesia for further biochemical evaluation of cGMP, camp and nitrite/nitrate contents.

O=C(O)CCC/C=C\C[C@@H]1[C@@H](CC[C@@H](O)CCc2ccccc2)[C@H](O)C[C@@H]1O [Latanoprost acid, reference compound]
change of intraocular pressure (in words): neither Latanoprost acid (data not shown) nor its isopropyl derivative elicited any appreciable change
